Results deposited as PubChem BioAssay AID493246 (Drosophila RNAi Screening Center, 2011).

Screen: 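Genes fly cells need to grow and stay alive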 (primary screen)
System: Drosophila Kc and S2R+ cells
Reagents: long dsRNA against Drosophila genes
Measured: 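Cell number per well after knock-down, printed as raw plate values; calls were based on per-plate z-scores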
Direction: Kc cell number and S2R+ cell number: higher = more cells remaining
Rule for the call: 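Active when the per-plate z-score of cell number is 3 or more in the direction of fewer cells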
In all, the deposit lists about 21,000 reagents; shown is a random part of those with a known target gene and a result. In the full data, 429 (2%) were called active. 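Values are raw and not normalised between plates; calls rest on per-plate z-scores that were not deposited.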 Reagents against one gene are numbered here. Names joined by + are all predicted targets of the reagent. The record does not give: the amount of reagent, the time to read-out.

The opening 3 records as a preview:
no.	Gene	reagent no.	Kc cell number, rep 1	Kc cell number, rep 2	S2R+ cell number, rep 1	S2R+ cell number, rep 2	Call
1	fon (GeneID 35211)	1	1.39e6	1.44e6	1.32e6	1.36e6	inactive
2	Inx5 (GeneID 32901)	1	1.53e6	1.61e6	1.09e6	1.23e6	inactive
3	salm (GeneID 34569)	1	1.80e6	1.75e6	1.22e6	1.38e6	inactive

The list itself, from the start:
no.	Gene	reagent no.	Kc cell number, rep 1	Kc cell number, rep 2	S2R+ cell number, rep 1	S2R+ cell number, rep 2	Call
1	fon (GeneID 35211)	1	1.39e6	1.44e6	1.32e6	1.36e6	inactive
2	Inx5 (GeneID 32901)	1	1.53e6	1.61e6	1.09e6	1.23e6	inactive
3	salm (GeneID 34569)	1	1.80e6	1.75e6	1.22e6	1.38e6	inactive
4	CG15093 (GeneID 37166)	1	1.42e6	1.49e6	1.25e6	1.32e6	inactive
5	Polr2G (GeneID 261631)	1	1.47e6	1.56e6	1.05e6	1.17e6	inactive
6	hop (GeneID 32080)	1	1.49e6	1.44e6	9.98e5	1.12e6	inactive
7	CG32668 (GeneID 318147)	1	1.64e6	1.78e6	1.15e6	1.19e6	inactive
8	for (GeneID 44817)	1	1.38e6	1.37e6	8.88e5	1.05e6	inactive
9	for (GeneID 44817)	2	1.31e6	1.65e6	1.25e6	1.12e6	inactive
10	Sbat (GeneID 319043)	1	1.44e6	1.48e6	1.03e6	1.13e6	inactive
11	sut1 (GeneID 35774)	1	1.39e6	1.49e6	1.06e6	1.07e6	inactive
12	Odc1 (GeneID 35766)	1	1.47e6	1.40e6	1.15e6	1.18e6	inactive
13	CtsL1 (GeneID 36546)	1	1.53e6	1.52e6	1.06e6	1.27e6	inactive
14	CtsL1 (GeneID 36546)	2	1.39e6	1.41e6	1.09e6	1.13e6	inactive
15	CG14454 (GeneID 40482)	1	1.53e6	1.58e6	1.17e6	1.23e6	inactive
16	osp (GeneID 34850)	1	1.51e6	1.57e6	9.11e5	1.12e6	inactive
17	osp (GeneID 34850)	2	1.18e6	1.27e6	1.24e6	1.21e6	inactive
18	alpha-Est2 (GeneID 40908)	1	1.49e6	1.62e6	1.33e6	1.43e6	inactive
19	CG42540 (GeneID 38562)	1	1.07e6	1.39e6	7.91e5	7.98e5	inactive
20	CG42540 (GeneID 38562)	2	1.67e6	1.63e6	9.19e5	1.04e6	inactive
21	CG42540 (GeneID 38562)	3	1.16e6	1.18e6	5.80e5	7.07e5	active
22	pnut (GeneID 35801)	1	1.24e6	1.34e6	9.83e5	1.08e6	inactive
23	BORCS5 (GeneID 32145)	1	6.01e5		8.90e5		inactive
24	shrb (GeneID 35933)	1	5.33e5	7.01e5	5.20e5	5.27e5	active
25	DIP-eta (GeneID 33793)	1	1.57e6	1.46e6	1.17e6	1.31e6	inactive
26	CG5078 (GeneID 40276)	1	1.37e6	1.43e6	1.34e6	1.36e6	inactive
27	CG5697 (GeneID 42483)	1	1.43e6	1.58e6	1.06e6	1.20e6	inactive
28	Phlpp (GeneID 35178)	1	1.47e6	1.62e6	1.28e6	3.40e5	inactive
29	CG30203 (GeneID 246514)	1	1.49e6	1.49e6	1.19e6	1.35e6	inactive
30	CG5151 (GeneID 39772)	1	1.47e6	1.51e6	7.58e5	8.29e5	active
31	CG5863 (GeneID 42096)	1	1.34e6	1.48e6	1.02e6	1.18e6	inactive
32	Obp93a (GeneID 42506)	1	1.39e6	1.41e6	9.98e5	1.09e6	inactive
33	CG30060 (GeneID 246426)	1	1.43e6	1.38e6	9.73e5	1.09e6	inactive
34	CysRS (GeneID 36784)	1	1.47e6	1.46e6	1.11e6	1.14e6	inactive
35	CG7914 (GeneID 32907)	1	1.46e6	1.48e6	1.07e6	1.16e6	inactive
36	Dhc64C (GeneID 38580)	1	1.40e6	1.40e6	1.25e6	1.24e6	inactive
37	CG8814 (GeneID 33492)	1	1.30e6	1.39e6	8.02e5	9.20e5	inactive
38	CG13511 (GeneID 37597)	1	1.62e6	1.67e6	1.37e6	1.34e6	inactive
39	PPO3 (GeneID 44513)	1	1.32e6	1.39e6	1.11e6	1.20e6	inactive
40	aurA (GeneID 41446)	1	2.08e6	2.09e6	1.22e6	1.26e6	inactive
41	Zw (GeneID 32974)	1	1.46e6	1.50e6	1.04e6	1.17e6	inactive
42	f (GeneID 32718)	1	1.44e6	1.41e6	1.15e6	1.31e6	inactive
43	f (GeneID 32718)	2	1.59e6	1.62e6	1.18e6	1.26e6	inactive
44	dpr4 (GeneID 3346160)	1	1.58e6	1.58e6	1.38e6	1.47e6	inactive
45	dpr4 (GeneID 3346160)	2	1.51e6	1.53e6	1.34e6	1.46e6	inactive
46	del (GeneID 35380)	1	1.38e6	1.47e6	1.05e6	1.11e6	inactive
47	MagR (GeneID 32513)	1	1.51e6	1.54e6	7.06e5	8.04e5	active
48	CG31806 (GeneID 261615)	1	1.53e6	1.52e6	1.19e6	1.28e6	inactive
49	RpL9 (GeneID 34526)	1	1.12e6	1.27e6	6.53e5	7.69e5	active
50	Pbp95 (GeneID 40949)	1	1.41e6	1.51e6	1.21e6	1.32e6	inactive
51	sv (GeneID 43825)	1	1.53e6	1.47e6	1.14e6	1.18e6	inactive
52	Pstk + CG14210 + Tim9b	1	1.44e6	1.43e6	8.44e5	9.86e5	inactive
53	CG15464 (retired record) (GeneID 31436)	1	1.53e6	1.62e6	1.01e6	1.22e6	inactive
54	HSPBAP1 (GeneID 43329)	1	1.47e6	1.53e6	9.76e5	1.11e6	inactive
55	CG14297 (GeneID 42260)	1	1.24e6	1.41e6	1.03e6	1.09e6	inactive
56	mrva (GeneID 38808)	1	1.35e6	1.41e6	1.04e6	1.16e6	inactive
57	CG6709 + Hez	1	1.24e6	1.33e6	1.31e6	1.32e6	inactive
58	CG6709 + Hez	2	1.35e6	1.38e6	1.30e6	1.34e6	inactive
59	defl (GeneID 39141)	1	1.12e6	1.51e6	1.16e6	9.65e5	inactive
